According to patent publication US20090253709A1 (NATIONAL DEFENSE MEDICAL CENTER, priority 2008, published 2009):

System: different cancer cell lines
Assay: In vitro cytotoxicity, Development Therapeutics Program, summary over all cell lines
Format: cell-based
Conditions: 1.0×10^−5 M
From the text: From the in vitro experiments of the Development Therapeutics Program of the Cancer Research Institute, the United States, it was known that the synthetic heterocyclic anthraquinone derivatives of the present invention have different inhibition levels to the different cancer cell lines under the concentration of 1.0×10^−5 M. Please refer to Table 2, which is the result of in vitro cytotoxicity of 2,7-disubstituted anthraquinone derivatives of the present invention.

In the case of CN(C)CC(=O)Nc1ccc2c(c1)C(=O)c1cc(NC(=O)CN(C)C)ccc1C2=O [Compound 8, 2,7-Bis[2-(dimethylamino)acetamido]anthraquinone], the “Cellular growth rate (%), Delta Value” is reported as 112.21% and the “Cellular growth rate (%), Range” value is reported as 185.81%.
For CC(=O)Nc1ccc2c(c1)C(=O)c1cc(NC(C)=O)ccc1C2=O [Compound 26, 2,7-Bis(acetamido)anthraquinone], the “Cellular growth rate (%), Delta Value” was 95.45% and the “Cellular growth rate (%), Range” value was 129.44%.
CCN(CC)CCC(=O)Nc1ccc2c(c1)C(=O)c1cc(NC(=O)CCN(CC)CC)ccc1C2=O [Compound 16, 2,7-Bis[3-(diethylamino)propionamido]anthraquinone] was tested, and the “Cellular growth rate (%), Delta Value” was 103.75% and the “Cellular growth rate (%), Range” value was 170.17%.
O=C1c2ccc(NC(=O)C3CC3)cc2C(=O)c2cc(NC(=O)C3CC3)ccc21 [Compound 32, 2,7-Bis(cyclopropanecarbonamido)anthraquinone] was tested, and the “Cellular growth rate (%), Delta Value” was 89.85% and the “Cellular growth rate (%), Range” value was 134.51%.
O=C(CCN1CCCC1)Nc1ccc2c(c1)C(=O)c1cc(NC(=O)CCN3CCCC3)ccc1C2=O [Compound 18, 2,7-Bis[3-(pyrrolidino)propionamido]anthraquinone] was tested, and the “Cellular growth rate (%), Delta Value” was 76.18% and the “Cellular growth rate (%), Range” value was 131.05%.
